Laboratory results: PubChem BioAssay AID1259308 (NCATS, 2017)
Shown is one part, drawn at random, of about 59,000 reagents. About 1,510 of them (2.6%) were called active. 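Calls use total luciferase alone and ignore viability, so some active siRNAs may act by altering cell number.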 The numbers tell different reagents against one gene apart. Not all columns of the deposit are shown. No sequences are given here.

- Assay: 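Knock-downs that increase output of a recombinant reporter protein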 (primary screen)
- Cells: human HEK293 embryonic kidney cells stably expressing firefly luciferase (HEK-CMV-Luc2-Hygro)
- Knock-down reagent: single siRNA against human genes, 0.8 pmol siRNA per well
- Time to read-out: 72 h
- Measurement: 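Luciferase light (ONE-Glo) measured on one replicate plate set and viability (CellTiter-Glo) on the other, scaled to a negative control siRNA, with robust z-scores and luciferase per cell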
- Reading the numbers: total luciferase, z-score and total luciferase, % of control: higher = more reporter protein produced
- Active means: 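Active when the median/MAD z-score for overall luciferase is greater than 3; a gene was taken forward for validation with new siRNAs if at least two of its three siRNAs passed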
- Calls: active = raised luciferase; inactive = no rise

The opening 5 records, to show the layout:
gene | reagent | total luciferase, z-score | total luciferase, % of control | outcome
ADO | 1 | 1.12 | 104 | inactive
ADO | 2 | 0.303 | 87.9 | inactive
ADO | 3 | -0.375 | 74.4 | inactive
PELI3 | 1 | 3.48 | 151 | active
PELI3 | 2 | 1.66 | 115 | inactive

The listing, from the start:
gene | reagent | total luciferase, z-score | total luciferase, % of control | outcome
ADO | 1 | 1.12 | 104 | inactive
ADO | 2 | 0.303 | 87.9 | inactive
ADO | 3 | -0.375 | 74.4 | inactive
PELI3 | 1 | 3.48 | 151 | active
PELI3 | 2 | 1.66 | 115 | inactive
PELI3 | 3 | 1.47 | 111 | inactive
SERPINA11 | 1 | 0.352 | 88.9 | inactive
SERPINA11 | 2 | -0.571 | 70.5 | inactive
SERPINA11 | 3 | -0.671 | 68.5 | inactive
CDK20 | 1 | 0.323 | 88.3 | inactive
CDK20 | 2 | 1.43 | 110 | inactive
CDK20 | 3 | -0.315 | 75.6 | inactive
THOC7 | 1 | 1.86 | 119 | inactive
THOC7 | 2 | -0.422 | 73.5 | inactive
THOC7 | 3 | -0.471 | 72.5 | inactive
TBC1D9 | 1 | 2.26 | 127 | inactive
TBC1D9 | 2 | 1.26 | 107 | inactive
TBC1D9 | 3 | 0.554 | 92.9 | inactive
PRKAR1A | 1 | -1.84 | 45.2 | inactive
PRKAR1A | 2 | 3.08 | 143 | active
PRKAR1A | 3 | 1.24 | 107 | inactive
SSBP1 | 1 | 0.121 | 84.3 | inactive
SSBP1 | 2 | 0.221 | 86.3 | inactive
SSBP1 | 3 | -0.981 | 62.4 | inactive
JAM2 | 1 | 1.97 | 121 | inactive
JAM2 | 2 | -1.19 | 58.1 | inactive
JAM2 | 3 | 0.0277 | 82.4 | inactive
DENND2C | 1 | -0.516 | 71.6 | inactive
DENND2C | 2 | 0.751 | 96.8 | inactive
DENND2C | 3 | 0.356 | 89 | inactive
TYMSOS | 1 | 0.54 | 92.6 | inactive
TYMSOS | 2 | -0.797 | 66 | inactive
TYMSOS | 3 | 0.441 | 90.7 | inactive
HOXA9 | 1 | 0.958 | 101 | inactive
HOXA9 | 2 | -1.08 | 60.5 | inactive
HOXA9 | 3 | -1.47 | 52.6 | inactive
REEP1 | 1 | 0.023 | 82.3 | inactive
REEP1 | 2 | -1.44 | 53.3 | inactive
REEP1 | 3 | -2.04 | 41.4 | inactive
APLP1 | 1 | -0.415 | 73.6 | inactive
APLP1 | 2 | -0.0558 | 80.8 | inactive
APLP1 | 3 | 1.35 | 109 | inactive
CFHR3 | 1 | -0.632 | 69.3 | inactive
CFHR3 | 2 | -0.0467 | 81 | inactive
CFHR3 | 3 | -1.15 | 59.1 | inactive
MYO3A | 1 | -1.94 | 43.3 | inactive
MYO3A | 2 | -1.9 | 44 | inactive
MYO3A | 3 | -0.0963 | 80 | inactive
LAYN | 1 | -0.496 | 72 | inactive
LAYN | 2 | -0.665 | 68.7 | inactive
LAYN | 3 | 1.06 | 103 | inactive
MOXD1 | 1 | -0.791 | 66.2 | inactive
MOXD1 | 2 | -0.217 | 77.6 | inactive
MOXD1 | 3 | -0.703 | 67.9 | inactive
ZNF416 | 1 | -1.33 | 55.4 | inactive
ZNF416 | 2 | 0.46 | 91 | inactive
ZNF416 | 3 | 0.356 | 89 | inactive
